The numbers were not newly measured in patent EP2578211A1, “6-DECAPRENYL-2,3-DIMETHOXY-5-METHYL-1,4-BENZOQUINONE-BASED COMPOSITION AND METHOD FOR THE PRODUCTION THEREOF” (Obschestvo S Ogranichennoi Otvetstvennostju "Accent", priority 2010, dated 2011), which cites them from elsewhere.

The conditions of this series: Temporal pharmacopoeial monograph 42 - 1978 - 90.

The structures appear in SMILES notation.

As for `COC1=C(OC)C(=O)C(C/C=C(\C)CC/C=C(\C)CC/C=C(\C)CC/C=C(\C)CC/C=C(\C)CC/C=C(\C)CC/C=C(\C)CC/C=C(\C)CC/C=C(\C)CCC=C(C)C)=C(C)C1=O` [6-decaprenyl-2,3-dimethoxy-5-methyl-1,4-benzoquinone], the solubility in water result is on record as “water-insoluble”.
